No constants are given. Whether binding was seen depends on the method and setting. In cells and extracts the contact can be indirect. Some results given as binding are weak or reduced against the parent protein; the word gives no strength. Where a sequence is shown, tags or fusion partners need not be part of it.
Biological target: T1, carboxy (C)-terminally Myc-tagged Arb1 (S. pombe) (UniProt Q9P7B8)
T1 sequence: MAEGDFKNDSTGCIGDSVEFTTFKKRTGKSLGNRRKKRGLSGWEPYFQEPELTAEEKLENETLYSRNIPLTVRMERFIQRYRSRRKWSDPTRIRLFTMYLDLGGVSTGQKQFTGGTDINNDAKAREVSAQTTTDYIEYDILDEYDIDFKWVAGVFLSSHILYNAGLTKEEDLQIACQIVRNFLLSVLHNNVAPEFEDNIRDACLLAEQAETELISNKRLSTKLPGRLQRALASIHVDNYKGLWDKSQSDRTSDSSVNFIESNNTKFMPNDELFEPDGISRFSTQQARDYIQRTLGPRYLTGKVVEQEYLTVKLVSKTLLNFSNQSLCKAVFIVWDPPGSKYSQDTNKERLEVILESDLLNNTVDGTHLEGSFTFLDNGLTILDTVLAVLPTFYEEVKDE
Test: co-IP; Myc-IP from soluble extracts of S. pombe cells co-expressing the Myc-tagged bait and FLAG-Ago1; IP buffer (50 mM HEPES-KOH pH 7.5, 140 mM NaCl, 1 mM EDTA, 1% Triton X-100, 0.1% Na-deoxycholate), 4 °C; western blot with anti-Myc and anti-FLAG; wild-type, hsp90-A4, mas5∆, arb2∆ (Arb1-Myc) and wild-type, dcr1∆, hsp90-A4 (Tas3-Myc) backgrounds

B1: N-terminally FLAG-tagged Ago1 (protein, UniProt O74957 2-834)
chain: SYKPSSEIALRPGYGGLGKQITLKANFFQIISLPNETINQYHVIVGDGSRVPRKQSQLIWNSKEVKQYFGSSWMNSVYDGRSMCWSKGDIADGTIKVNIGSESHPREIEFSIQKSSKINLHTLSQFVNSKYSSDPQVLSSIMFLDLLLKKKPSETLFGFMHSFFTGENGVSLGGGVEAWKGFYQSIRPNQGFMSVNVDISSSAFWRNDSLLQILMEYTDCSNVRDLTRFDLKRLSRKFRFLKVTCQHRNNVGTDLANRVYSIEGFSSKSASDSFFVRRLNGEEQKISVAEYFLENHNVRLQYPNLPCILVKNGAMLPIEFCFVVKGQRYTAKLNSDQTANMIRFAVQRPFERVQQIDDFVHQMDWDTDPYLTQYGMKIQKKMLEVPARVLETPSIRYGGDCIERPVSGRWNLRGKRFLDPPRAPIRSWAVMCFTSTRRLPMRGIENFLQTYVQTLTSLGINFVMKKPPVLYADIRGSVEELCITLYKKAEQVGNAPPDYLFFILDKNSPEPYGSIKRVCNTMLGVPSQCAISKHILQSKPQYCANLGMKINVKVGGINCSLIPKSNPLGNVPTLILGGDVYHPGVGATGVSIASIVASVDLNGCKYTAVSRSQPRHQEVIEGMKDIVVYLLQGFRAMTKQQPQRIIYFRDGTSEGQFLSVINDELSQIKEACHSLSPKYNPKILVCTTQKRHHARFFIKNKSDGDRNGNPLPGTIIEKHVTHPYQYDFYLISHPSLQGVSVPVHYTVLHDEIQMPPDQFQTLCYNLCYVYARATSAVSLVPPVYYAHLVSNLARYQDVTADDTFVETSEASMDQEVKPLLALSSKLKTKMWYM
**Q.** Which binding does the source give for B1 here?
**A.** Its binding is “binds”.
